Assay results published in PubChem BioAssay AID2685 (National Center for Advancing Translational Sciences (NCATS), 2010).
The list shows a part of the results. Further columns of the screen follow, without active or inactive calls. Compounds called inactive in the main read-out are mostly missing here. Potencies come from curve fits of mixed quality, noted in brackets.

Assay: qHTS Assay for Lipid Storage Modulators in Drosophila S3 Cells;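 on cell number change: cells counted by Cell Tracker Red CMTPX staining in the red channel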
Conditions: BODIPY lipid droplet fluorescence, 18-24 h; for cell number change: measured here: cell count max response, cells fed with added oleic acid
How it was run: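 Laser-scanning cytometry quantifies lipid droplet accumulation (500–530 nm total intensity; droplet/cell object ratio) in oleic acid-fed (400 uM added) Drosophila S3 cells treated with a concentration series. 20 uM Triacsin C defined 100% inhibition.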

[1] = measured here: lipid fluorescence (Fed channel) AC50, cells fed with added oleic acid
[2] = measured here: cell number channel AC50, cells fed with added oleic acid

Row | Structure (SMILES) | AC50 [1] | cell number change | AC50 [2]
1 | Cc1nn(C(C)C(=O)NC2CC2)c(=O)c2nn(-c3ccccc3)c(C)c12 (stereo not given) | 29.1 µM [rising, single point] | – | –
2 | O=C(Nc1cccc(F)c1)C1CC(=O)N(c2ccc(Cl)cc2)C1 (stereo not given) | 3.26 µM [falling, full curve] | – | –
3 | O=C(c1cc(COc2ccc(F)cc2Cl)on1)N1CCN(C2CCCC2)CC1 | 2.91 µM [rising, partial curve, poor fit] | 15.5% | 3.26 µM [rising, partial curve, poor fit]
4 | O=C(CSc1ncccc1C(=O)O)Nc1ccc2c(c1)OCCO2 | 32.6 µM [rising, single point] | -0.427% | –
5 | Cc1ccc(S(=O)(=O)N2CCCCC2)cc1NC(=O)c1ccc2ccccc2n1 | 3.66 µM [falling, partial curve] | – | –
6 | O=c1c2ccccc2c(C=Nc2ccccc2O)c(O)n1-c1nccs1 | 29.1 µM [falling, single point] | 39.8% | 10.3 µM [rising, partial curve, poor fit]
7 | COc1ccc(C)cc1S(=O)(=O)NC(C)C(=O)Nc1ccc2c(c1)OCO2 (stereo not given) | – | -6.41% | –
8 | O=C(Nc1nc2ccc(F)cc2s1)c1ccccn1 | 3.26 µM [rising, full curve] | -10.1% | –
9 | CCS(=O)(=O)N1CCCC(C(=O)NCc2ccccc2Cl)C1 (stereo not given) | 0.58 µM [falling, single point] | – | –
10 | Cc1ccc(C(=O)NCCNC(=O)COc2ccccc2Cl)cn1 | 0.206 µM [rising, single point] | 18.9% | –
11 | COc1ccc(N2CC(C(=O)N[C@H](C(=O)NC(C)c3ccccc3)C(C)C)CC2=O)cc1 (stereo not given in full) | 0.092 µM [rising, full curve, poor fit] | – | –
12 | CC12C(=O)N(n3cnnc3)C(=O)C1C1C=CC2C1 (stereo not given) | 5.8 µM [falling, partial curve, poor fit] | – | –
13 | CCN(c1ccccc1)S(=O)(=O)c1ccc(N2CCN(c3ccccc3O)CC2)nc1 | 11.6 µM [falling, partial curve] | -31.6% | 29.1 µM [falling, single point]
14 | CC(=O)NC1=NN(C(C)=O)C(c2ccc(C(C)C)cc2)S1 (stereo not given) | 5.8 µM [rising, partial curve] | 15.9% | –
15 | CC(C)c1ccccc1NC(=O)Nc1ccc2c(c1)OCO2 | 25.9 µM [rising, single point] | 8.58% | –
16 | Nc1ccc2c(C(F)(F)F)cc(=O)oc2c1 | 0.146 µM [falling, full curve, poor fit] | -8.55% | –
17 | COC(=O)Cc1ccc(NC(=O)c2ccccc2Cl)cc1 | 0.103 µM [rising, full curve, poor fit] | 18.8% | –
18 | Cc1cc2oc(=O)cc(CN3CCOCC3)c2cc1C(C)C | 0.651 µM [falling, single point] | 0.427% | –
19 | Cc1cccc(NC(=O)Cn2c(=O)n(Cc3ccco3)c(=N)c3c4c(sc32)COC(C)(C)C4)c1 | 29.1 µM [rising, partial curve] | 93.1% | 29.1 µM [rising, single point]
20 | Cc1cccc(C)c1N(CC(=O)Nc1cccc(N(C)S(C)(=O)=O)c1)S(C)(=O)=O | 29.1 µM [rising, single point] | -6.36% | –

Row | Structure (SMILES) | AC50 [1] | cell number change | AC50 [2]
21 | Cc1cccc(N(CC(=O)N/N=C/c2ccc(OCC(=O)NCc3ccco3)cc2)S(C)(=O)=O)c1C | 1.64 µM [rising, partial curve] | 58.6% | 4.11 µM [rising, partial curve]
22 | O=c1[nH]c(CN2CCN(c3ccccc3)CC2)nc2scc(-c3ccccc3)c12 | – | 11.8% | –
23 | C=CCOC(=O)C1=C(C)N=C2SCCC(=O)N2C1c1ccc(OC(=O)c2ccco2)cc1 (stereo not given) | – | -10.5% | –
24 | Cc1cnc(NC(=O)Cc2ccccc2F)s1 | 29.1 µM [rising, single point] | -3.78% | –
25 | Cc1cc(C2C(C#N)=C(N)SC(N)=C2C#N)c(C)s1 | 6.51 µM [rising, single point] | – | 6.51 µM [rising, single point]
26 | c1ccc(CN2CCOCC2)cc1 | – | -17% | –
27 | C#CCOCCOCCOCCNc1nc(N2CCN(C(=O)CCCCCCCCCCNC(=O)[C@@H](CCSC)n3cc(CCO)nn3)CC2)nc(N2CCN(C(=O)CCCCCCCCCCNC(=O)[C@H](CCC(=O)O)n3cc(CCCCCN)nn3)CC2)n1 | 6.51 µM [rising, single point] | 2.44% | –
28 | CCOC(=O)C(C)Sc1nnc2c3ccccc3n(C)c2n1 (stereo not given) | 29.1 µM [falling, partial curve, poor fit] | -15% | –
29 | COc1cc(CCC(=O)OCC(=O)NCC2CCCCC2)cc(OC)c1OC | 0.82 µM [rising, full curve] | – | –
30 | CCc1ccc(N/C(=N/c2nc(C)cc(C)n2)NC(C)=O)cc1 | 0.092 µM [rising, full curve, poor fit] | -0.734% | –
31 | C=CCOc1ccccc1/C=C/C(=O)O | 29.1 µM [rising, single point] | – | –
32 | CCOC(=O)[C@@H]1[C@H]2COc3ccccc3[C@H]2N2C(=O)N(c3ccc(C)cc3)C(=O)[C@]12C | – | -9.58% | –
33 | CCCCN(CCCC)S(=O)(=O)c1ccc(NC(=O)Cc2cccs2)cc1 | 0.146 µM [rising, full curve, poor fit] | -9.8% | –
34 | Cc1ccc(OCC(=O)O/N=C(\N)c2ccccn2)cc1C | – | -1.92% | –
35 | Cc1ccc(N(CC(=O)N2CCCC2)S(C)(=O)=O)c(C)c1 | 0.517 µM [falling, single point] | 12.2% | –
36 | Cc1sc2ncnc(NCCc3ccc(S(N)(=O)=O)cc3)c2c1C | 1.64 µM [rising, single point] | -70.3% | 18.4 µM [falling, partial curve]
37 | O=c1c(C=NCCCn2ccnc2)c(-c2ccccc2)[nH]n1-c1nc2ccccc2s1 | 6.51 µM [rising, single point] | – | 6.51 µM [rising, single point]
38 | COC(=O)c1ccccc1NC(=O)CNc1cc(OC)c(OC)cc1C | 14.6 µM [falling, single point] | -13.1% | –
39 | Nc1ccc(C(=O)OCC(=O)N2c3ccccc3Sc3ccccc32)cc1[N+](=O)[O-] | 2.06 µM [rising, partial curve] | 15.8% | –
40 | Nc1ccc2sc(N)nc2c1 | 29.1 µM [rising, single point] | 16.9% | –

Exported tab-delimited: entries from further up
Row	Structure (SMILES)	AC50 [1]	cell number change	AC50 [2]
29	COc1cc(CCC(=O)OCC(=O)NCC2CCCCC2)cc(OC)c1OC	0.82 µM [rising, full curve]	–	–
30	CCc1ccc(N/C(=N/c2nc(C)cc(C)n2)NC(C)=O)cc1	0.092 µM [rising, full curve, poor fit]	-0.734%	–
31	C=CCOc1ccccc1/C=C/C(=O)O	29.1 µM [rising, single point]	–	–
32	CCOC(=O)[C@@H]1[C@H]2COc3ccccc3[C@H]2N2C(=O)N(c3ccc(C)cc3)C(=O)[C@]12C	–	-9.58%	–
33	CCCCN(CCCC)S(=O)(=O)c1ccc(NC(=O)Cc2cccs2)cc1	0.146 µM [rising, full curve, poor fit]	-9.8%	–

Carrying on:

Row | Structure (SMILES) | AC50 [1] | cell number change | AC50 [2]
41 | NC(=O)N=Nc1c(O)[nH]c2ccc([N+](=O)[O-])cc12 | 29.1 µM [falling, single point] | -50.6% | 29.1 µM [falling, single point]
42 | CC(C)NC(=O)c1ccc2c(c1)N(CC(=O)N1CCCCC1)C(=O)C(C)(C)O2 | – | -1.25% | –
43 | CCC1=Nc2cc(C(=O)NCCCN3CCN(C)CC3)ccc2Sc2ccccc21 | – | 38.2% | –
44 | COc1ccc(NC(=O)c2c(C)nn(-c3ccccc3)c2Cl)cc1 | 1.84 µM [rising, full curve] | 5.11% | 0.116 µM [rising, full curve, poor fit]
45 | CCCc1cc(=O)oc2cc(OCC(=O)NCCc3c[nH]c4ccccc34)ccc12 | 16.4 µM [falling, partial curve, poor fit] | 23.8% | –
46 | CC(CCc1ccccc1)NC(=O)c1ccccc1F (stereo not given) | 0.58 µM [rising, single point] | -24.7% | –
47 | Cc1cccc(NC(=O)c2oc3c(c2C)C(=O)CC(C)(C)C3)n1 | 6.51 µM [rising, single point] | 200% | 23.1 µM [rising, single point]
48 | CC(=O)Nc1cccc(C(=O)OCC(=O)N2CCC(c3ccccc3)=N2)c1 | – | – | 2.31 µM [rising, partial curve, poor fit]
49 | Cc1nc2ccc(NC(=O)[C@@H](NC(=O)c3c(F)cccc3F)C(C)C)cc2s1 | 29.1 µM [falling, single point] | -8.54% | –
50 | Cc1cc(-c2nnc(-c3cc4ccccc4oc3=O)o2)c(C)n1-c1ccccc1 | 0.461 µM [falling, single point] | -3.27% | –
51 | Cc1cc(C)nc(SCC(=O)c2ccc3c(c2)OCCO3)n1 | – | – | 0.366 µM [rising, partial curve, poor fit]
52 | COc1ccc(C(=O)/C=C/c2cccs2)c(OC(=O)c2cccc([N+](=O)[O-])c2)c1 | 0.731 µM [falling, single point] | -20% | –
53 | COc1ccc(N(CC(=O)O)S(C)(=O)=O)cc1OC | 1.03 µM [falling, full curve] | -4.25% | –
54 | C/[N+]([O-])=C\C1C(=O)CCCC1=O | 2.91 µM [falling, full curve] | -26.9% | 0.259 µM [falling, full curve, poor fit]
55 | O=C(Nc1nc2ccccc2n1CCOc1ccccc1)c1ccco1 | 9.2 µM [falling, partial curve, poor fit] | -30.5% | 5.17 µM [falling, partial curve]
56 | COc1ccc(-c2csc(NC(=O)C3CC(=O)N(c4ccc5c(c4)OCCO5)C3)n2)cc1 (stereo not given) | 29.1 µM [falling, partial curve] | -20.9% | –
57 | CN=C1SC(CC(=O)Nc2ccccc2F)C(=O)N1C (stereo not given) | – | -76.3% | 0.231 µM [falling, full curve]
58 | CCOC(=O)c1cn2nc(SCc3ccccc3)nc2nc1C | 29.1 µM [falling, single point] | -9.71% | –
59 | CCCC(=O)C1=C(O)C(C(=O)OC)C(C)(C)CC1=NCCc1ccccc1 (stereo not given) | – | 2.75% | –
